The structures appear in SMILES notation.

The values below come from US11384101B2, “Oral care compositions” (priority 2017, dated 2022).

The conditions of the series: room temperature.

Take `CCCCCCCCCCCCCCCC[n+]1ccccc1` [CPC, Cetylpyridinium chloride, reference compound]: the “concentrations at which readily soluble in water (up to)” value is on record as “up to 25 weight %”. In addition, the “concentrations producing a translucent gel or soft-solid material” value (water) is reported as “greater than 40 weight %”.

On to `[Cl-].[Cl-].[Zn+2]` [ZnCl2, zinc chloride], for which the “concentrations at which readily soluble in water (up to)” value is listed as “up to 75 weight %”.
